{
  "source": "PubChem BioAssay AID1347076",
  "about": "(National Center for Advancing Translational Sciences (NCATS), 2019)",
  "note": "In all, about 400,000 compounds went through this assay and about 13,000 (3.2%) were called active. Inconclusive means that the source gave no clear call. Such entries were picked first, then a sample of the others. The call rests on the fitted dose curve; in most records, active means well fitted cell-killing curve with a large enough effect; inconclusive means small, poorly fitted or top-dose-only effect, or effect the other way; inactive means flat fitted curve, though single readings scatter. Potencies of inconclusive entries are doubtful fits and often do not repeat. Potency means the concentration at half of the fitted maximal effect.",
  "data": [
    {"experiment": "qHTS assay for MDR1-selective chemotherapeutics: Primary screen using the drug-selected MDR subline cells KB-V1; further: nearly all actives have a fitted effect of over 60% in size", "conditions": "KB-V1 MDR cells viability, CellTiter-Glo, 72 h; series mostly up to 46.1 µM", "procedure,_shortened": "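qHTS viability screen in drug-selected KB-V1 MDR cells: 72 h compound treatment at 37 degrees C, ATP luminescence end point.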", "values": [
      {"smiles": "COc1cccc(COc2cc3ccccc3nc2C)c1", "Potency": "inconclusive: 8.2 µM [cytotoxic, partial curve]"},
      {"smiles": "C/C(=N\\OC(=O)NC(C)C)c1sc(-c2ccccc2)nc1C", "Potency": "inactive"},
      {"smiles": "CC(C)CCNC1c2ccccc2C(=O)N1Cc1ccccc1", "note": "(configuration not stated)", "Potency": "inconclusive: 14.6 µM [cytotoxic, single point]"},
      {"smiles": "CC(C)(C)NCc1ccc(OCc2cccs2)cc1", "Potency": "inactive"},
      {"smiles": "CC(C(=O)OCC(=O)c1ccc([N+](=O)[O-])cc1)N1C(=O)C2C3C=CC(C3)C2C1=O", "note": "(configuration not stated)", "Potency": "inconclusive: 29.1 µM [rising, single point]"},
      {"smiles": "Cc1ccc(C(C)C)c(OCCCn2c(=O)oc3ccc(C)cc32)c1", "Potency": "inconclusive: 18.4 µM [cytotoxic, partial curve, poor fit]"},
      {"smiles": "C[C@@H](C(=O)NCc1ccccc1)[C@@H]1C[C@@]1(C)[C@@H](NC(=O)OCc1ccccc1)c1ccccc1", "Potency": "inactive"},
      {"smiles": "CCOC(=O)C1CCCN(CC(=O)NC2=Nc3ccccc3N=C(C)C2c2ccccc2)C1", "note": "(configuration not stated)", "Potency": "inconclusive: 32.6 µM [cytotoxic, single point]"},
      {"smiles": "COc1ccc(OC)c(Nc2nc(-c3ccncc3)nc3ccccc23)c1", "Potency": "inconclusive: 29.1 µM [cytotoxic, single point]"},
      {"smiles": "O=C(NCCSc1ccc(Cl)cc1)c1ccc(CN2CCOCC2)cc1", "Potency": "inconclusive: 2.31 µM [cytotoxic, partial curve]"},
      {"smiles": "Cc1ccc(S(=O)(=O)n2ccc3c(OCCOCCSCC(NC(=O)OC(C)(C)C)C(=O)O)cccc32)cc1", "note": "(configuration not stated)", "Potency": "inconclusive: 29.1 µM [rising, single point]"},
      {"smiles": "CC(=O)C1=C(O)C(=O)N(CC(=O)O)C1c1ccccc1Cl", "note": "(configuration not stated)", "Potency": "inconclusive: 29.1 µM [rising, single point]"},
      {"smiles": "CCn1c(-c2csc3c2CCCC3)n[nH]c1=S", "Potency": "inconclusive: 29.1 µM [cytotoxic, single point]"},
      {"smiles": "O=C(NCCOc1ccccc1Cl)C(=O)c1c[nH]c2ccccc12", "Potency": "inconclusive: 18.4 µM [cytotoxic, partial curve, poor fit]"},
      {"smiles": "Cc1noc(C)c1COc1cccc(C(=O)Nc2ccc3c(c2)OCO3)c1", "Potency": "inconclusive: 29.1 µM [cytotoxic, single point]"},
      {"smiles": "COc1ccc(CCC(=O)N2c3ccccc3N=C(c3ccc(C(F)(F)F)cc3)C2C(=O)NC(C)C)cc1", "note": "(configuration not stated)", "Potency": "inconclusive: 2.91 µM [cytotoxic, partial curve, poor fit]"},
      {"smiles": "CCOC(=O)Cn1nnnc1CN1CCN(c2ccc(OC)cc2)CC1", "Potency": "inconclusive: 9.2 µM [rising, partial curve, poor fit]"},
      {"smiles": "CN(C)C(CNC(=O)c1cc(S(=O)(=O)N(C)c2ccc(F)cc2)ccc1Cl)c1ccco1", "note": "(configuration not stated)", "Potency": "inconclusive: 7.31 µM [cytotoxic, partial curve]"},
      {"smiles": "CC(O)(c1ccc(F)c(F)c1)c1nc(-c2cccc3cccnc23)cs1", "note": "(configuration not stated)", "Potency": "inactive"},
      {"smiles": "COC(=O)[C@@]12C[C@@H](CC(=O)NCCCCc3ccccc3)C(=O)N(CCc3ccc(OC)c(OC)c3)C1=CCC(C)(C)C2", "Potency": "active: 16.4 µM"},
      {"smiles": "CCNc1nc(CSc2ccccc2)nc2sc(C)c(C)c12", "Potency": "inconclusive: 8.2 µM [cytotoxic, partial curve]"},
      {"smiles": "CCOC(=O)N1CCC(NC(=O)c2ccc(CS(=O)(=O)c3ccc(OC)cc3)o2)CC1", "Potency": "inconclusive: 1.84 µM [rising, partial curve, poor fit]"},
      {"smiles": "Cc1cccc(NC(=S)NC(=O)c2cccs2)n1", "Potency": "inconclusive: 29.1 µM [cytotoxic, single point]"},
      {"smiles": "COc1ccc(NC(=O)C2(C)CCN2C(=O)c2ccccc2CCc2ccccc2)cc1OC", "note": "(configuration not stated)", "Potency": "inconclusive: 20.6 µM [cytotoxic, single point]"},
      {"smiles": "O=C(Nc1cccc(O)c1)C(=O)Nc1ccccn1", "Potency": "inconclusive: 18.4 µM [cytotoxic, single point]"},
      {"smiles": "O=C(CCCCCCCCC(=O)N1CCCCC1)N1CCCCC1", "Potency": "active: 2.31 µM"},
      {"smiles": "CC(C)C(=O)N1CCC(c2nc(-c3ccc(S(=O)(=O)N4CCCC4)cc3)no2)CC1", "Potency": "active: 11.6 µM"},
      {"smiles": "O=C(CCCCCN1C(=O)c2ccccc2C1=O)Nc1ccc(S(=O)(=O)N2CCCCC2)cc1", "Potency": "inconclusive: 20.6 µM [cytotoxic, single point]"},
      {"smiles": "CC(C)c1ccc(-c2nc3c([nH]2)c(=O)n(C)c(=O)n3C)cc1", "Potency": "inactive"},
      {"smiles": "O=C(Nc1cnn(Cc2ccc(Cl)cc2)c1)c1cccs1", "Potency": "inconclusive: 10.3 µM [cytotoxic, partial curve, poor fit]"},
      {"smiles": "CCOC(=O)C1=C(c2ccccc2)NC(=O)NC1c1cc(OC)c(O)c([N+](=O)[O-])c1", "note": "(configuration not stated)", "Potency": "inactive"},
      {"smiles": "CC1CCCCC1NC(=O)CN1CCC(O)(c2ccc3c(c2)OCO3)CC1", "note": "(configuration not stated)", "Potency": "inconclusive: 29.1 µM [cytotoxic, single point]"},
      {"smiles": "CN(C)S(=O)(=O)Oc1ccsc1C(=O)Nc1ccc(C(F)(F)F)cc1", "Potency": "inconclusive: 23.1 µM [cytotoxic, partial curve, poor fit]"},
      {"smiles": "CCNC(=S)NNC(=O)c1csc2ccccc12", "Potency": "inconclusive: 14.6 µM [cytotoxic, partial curve]"},
      {"smiles": "Cc1scc(C(=O)NNC(=S)NCC2CCCO2)c1-c1ccccc1", "note": "(configuration not stated)", "Potency": "inconclusive: 16.4 µM [cytotoxic, partial curve]"},
      {"smiles": "Cc1nc(NS(=O)(=O)c2ccccc2)sc1NC(=O)Nc1ccccc1", "Potency": "inconclusive: 18.4 µM [rising, single point]"},
      {"smiles": "CCOc1cc(/C=N\\Nc2ncc(F)c(N3CCOCC3)n2)ccc1Oc1nc(Cl)ncc1F", "Potency": "inconclusive: 16.4 µM [cytotoxic, single point]"},
      {"smiles": "CCc1cccc(NC(=O)CSc2n[nH]c(-c3ccccc3Cl)n2)c1", "Potency": "inconclusive: 29.1 µM [cytotoxic, single point]"},
      {"smiles": "Cc1ccc(Cn2cc(SCC(=O)Nc3nccs3)c3ccccc32)cc1", "Potency": "inactive"},
      {"smiles": "O=c1[nH]c(=O)n(C(c2ccccc2)(c2ccccc2)c2ccccc2)cc1N(CCO)CCO", "Potency": "active: 16.4 µM"},
      {"smiles": "COc1ccc(CCNC(=O)C2CCN(C(=O)c3ccc(C(C)(C)C)cc3)CC2)cc1OC", "Potency": "inactive"},
      {"smiles": "CCCNC(=O)C1(C)CCN(C(=O)c2cc(C(C)(C)C)nn2C)C1", "note": "(configuration not stated)", "Potency": "inconclusive: 18.4 µM [rising, partial curve, poor fit]"}
    ]}
  ]
}
